Source: PubChem BioAssay AID504594 (Broad Institute, 2011)
Several values for one entry are separate records, joined by “and”; a condition that tells them apart may be missing. Equal values may be shown once. Out of some 2,000 compounds screened, fewer than 10 were called active.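 Rule for the calls: active = growth inhibition of at least 75% in every replicate, which also brings the mean inhibition to 75% or more; inconclusive = mean inhibition 75% or more but some replicate under 75%; inactive = the rest.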 This is one part of the list.

test: growth inhibition of PfHsp90-dependent yeast, primary screen, antimalarial PfHsp90 inhibitor project, S. cerevisiae, BacTiter-Glo luminescence (AID 504594);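 note: 0% = DMSO neutral control wells and 100% = 20 µM radicicol control wells; higher value means stronger growth inhibition because the sign is flipped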; details: S. cerevisiae expressing PfHsp90, BacTiter-Glo growth, 48 h; at 9.4 µM; stronger effect = higher value

Growth inhibition, inactive:
COC1CCCCC1Nc1ccc(C)c(C)c1 (stereo unspecified) 5.91%
COCCn1c(/C=C/c2ccccc2)nc2ccccc21 -5.73%
CC1CNCCN1S(=O)(=O)c1cccc2cnccc12 (stereo unspecified) -3.57%
CCOC(=O)C1=C[C@]2(CC)CCCN3CCc4c(n1c1ccccc41)[C@@H]32 11.2%
Cc1ccc2c(c1)C(C)(C)[C@]1(C)NC(=O)CCN21 -7.32%
CC(=O)OC1c2c(ccc3ccc(=O)oc23)OC(C)(C)C1OC(=O)CC(C)C (stereo unspecified) -3.94%
CCOC(=O)c1c(C)oc2c1C(=O)c1ccccc1C2=O -0.693%
O=C(CN1CC[n+]2c(-c3cccs3)csc21)c1ccc(Br)cc1 -7.32%
Cc1ccccc1NC(=O)C1c2ccccc2Oc2ccccc21 0.0755%
Cc1ccc(C(CC(=O)NCc2ccco2)c2ccc(OC(C)C)cc2)cc1 (stereo unspecified) 19.3%
CCCCOc1cc(C(=O)NCCN(CC)CC)c2ccccc2n1 7.6% and 11.3%
COc1cccc(CC2CC(=O)N(c3ccc4c(C)cc(=O)oc4c3)C2=O)c1 (stereo unspecified) 0.322%
O=C1CCc2cc(OCCCCc3nnnn3C3CCCCC3)ccc2N1 4.02%
CCS(=O)(=O)CCn1c([N+](=O)[O-])cnc1C -11.7%
C(=C\c1ccc2ccccc2n1)/c1ccccc1 -1.38%
c1cc(-c2ccncc2)ccn1 9.23%
Cc1csc(CCc2nc(C)cs2)n1 0.825%
O=C(Oc1ccc2c3c(c(=O)oc2c1)CCCC3)c1ccco1 -14.3%
COc1ccc(-c2c(C)c3ccc(OCC(C)=O)cc3oc2=O)cc1 11.9%
CN1CC2CCCC3(C1)C(=O)NC1(CCCCC1)N=C23 (stereo unspecified) -13.6%
O=C(/C=C/c1ccc2c(c1)OCO2)NCc1ccc(F)cc1 -4.35%
COc1ccc(-c2cc(C(=O)N3CCOCC3)c3cc(C)ccc3n2)cc1 -5.28%
Cc1nnc(SCC(=O)N2CCCC(C(=O)c3ccc(Cl)cc3)C2)o1 (stereo unspecified) -4.32%
Cc1ccc(C(=O)NCCNC(=O)c2ccccc2)cc1 8.92%
CC(=O)Nc1cc(O)cc(O)c1 8.04%
CNCCC(Oc1ccc(C(F)(F)F)cc1)c1ccccc1 (stereo unspecified) 0.953%
COc1ccc2nc(NC(=O)Nc3ccccc3)sc2c1 -1.88%
COC(=O)c1cc(OC)c(OC)c(OC)c1[N+](=O)[O-] 4%
C[C@]12CC[C@@H]3c4cc(O)c(O)cc4CC[C@H]3[C@@H]1CC[C@@H]2O 28.5%
COc1cccc2c(O)cc(=O)n(C)c12 7.56%
CCCCNC(=O)NS(=O)(=O)c1ccc(C)cc1 0.0257%
CC(=O)[C@H]1CC[C@H]2[C@@H]3C[C@H](C)C4=CC(=O)CC[C@]4(C)[C@H]3[C@@H](O)C[C@]12C 0.129%
CC(C)CC1c2[nH]c3ccccc3c2CCN1C(=O)CCC(=O)N(C)C (stereo unspecified) -3.21%
CC(=O)N1c2ccccc2C(C)=CC1(C)C 8.72%
CCOCc1cc(C)[nH]c(=O)c1C#N 0.203%
O=C(CCC(=O)c1cccs1)c1cccs1 11%
O=C1c2ccccc2C2(c3ccccc3)NCCN12 (stereo unspecified) -0.371%
Cc1ccc(/C=N/Nc2nc(C(C)(C)C)cs2)o1 0.411%
CC(=O)c1cccc2c(O)c(C3=Nc4ccccc4C3=O)[nH]c12 19.7%
CC(CCCC(C)(C)O)NC(=O)c1ccc(OC2CCN(C(=O)C3CC3)CC2)cc1 (stereo unspecified) 8.46%
COc1cc2c(cc1OC)C(c1ccc(-c3cc(Cl)ccc3Cl)o1)=NCC2 1.54%
CC(C)OC(=O)C1C2C=CC3(CN(CC4CCCO4)C(=O)C13)O2 (stereo unspecified) 8.41%
CC(C)COCC(CN(Cc1ccccc1)c1ccccc1)N1CCCC1 (stereo unspecified) -7.22%
Oc1ccc(Cl)cc1Cc1cc(Cl)ccc1O 46%
COc1ccc(OC(C)C(=O)Nc2ccccc2F)cc1 (stereo unspecified) -8.14%
COc1ccc(/C=C/C(=O)NC(=S)NN2CCCCC2c2cccnc2)cc1 (stereo unspecified) -8.16%
O=C(Nc1nc2ccccc2s1)c1ccc(F)cc1 -16.1%
CCn1c2ccccc2c2cc(CC(N)=O)ccc21 -13.3%
CCn1c(/C=C/c2ccccc2)nc2ccccc2c1=O -5.35%
N#C/C(C(N)=O)=c1/ccc2c(c1)N1C3=C(CCCC3)CC3CCCCC31N=2 (stereo unspecified) 38.1%
CCOc1ccc2ccccc2c1CNc1nnnn1C -6.35%
Cc1ccc2ncnc(NCCCCCC(=O)O)c2c1 4.2%
Cc1ccsc1C1NC(=O)c2ccccc2N1 (stereo unspecified) -12.4%
COc1ccc(OC(C)C(=O)Nc2ccc([N+](=O)[O-])cc2)cc1 (stereo unspecified) -4.37%
COc1ccc2oc(=O)c(C(=O)N3CCN(c4ccccc4)CC3)cc2c1 -2.77%
O=C(NCCCCCc1nc2ccccc2[nH]1)c1ccccc1Cl -7.37%
O=C(Nc1cccc(-c2nc3ncccc3o2)c1)c1ccccc1 -4.33%
CCCCOC(=O)c1ccc(N)cc1 -3.5%
O=C(CS(=O)(=O)Cc1ccccc1)NCc1ccc2c(c1)OCO2 15.7%
Cc1ccc(-n2ncc3c(Nc4cccc(C(=O)O)c4)ncnc32)cc1 -0.664%
NCCOc1ccccc1OCCN -14.9%
Cc1ccc2[nH]c3c(c2c1)CN(C(=O)CN1CCSCC1)CC3 -8.61%
COc1cc(OC)cc(C(C)=O)c1 -6.96%
COCCn1c(SCCOc2ccccc2)nc2ccccc2c1=O 3.69%
CC[N+]1(C)CC2CCC(C)(C1)C2(C)C (stereo unspecified) 1.9%
CC(C)(C)OC(=O)N1CCCC1C(=O)NC(Cc1ccccc1)C(=O)O (stereo unspecified) -19.4%
CC(CCc1ccccc1)NC(=O)/C=C/c1ccccc1 (stereo unspecified) -11.1%
COc1cc(Cc2cnc(N)nc2N)cc(OC)c1OC 13.7% and -12.9%
CC(C)OC(=O)C1C(=O)CC(C)(O)C(C(=O)OC(C)C)C1c1cccc(O)c1 (stereo unspecified) -3.65%
COc1ccc(CCN2CNc3c(c(=O)n(C)c(=O)n3C)C2)cc1OC 5.39%
COc1ccc(CN(CCC(c2ccccc2)c2ccc(OC(C)C)cc2)C(=O)CCl)cc1OC (stereo unspecified) -2.59%
O=C(O)CCSCCC(=O)O -0.633%
CO[C@@]1(NC(=O)Cc2cccs2)C(=O)N2C(C(=O)O)=C(COC(N)=O)CS[C@@H]21 0.427%
O=C(c1cc2cc(Br)ccc2o1)N1CCCCC1 5.37%
O=C(c1ccco1)N(CCC(c1ccccc1)c1ccco1)Cc1ccco1 (stereo unspecified) -4.9%
CC(C)Oc1ccc(C(CC(=O)O)c2ccc(F)cc2)cc1 (stereo unspecified) 9.94%
COc1ccc(C2C(=O)c3ccccc3C2=O)cc1 -2.08%
Cc1cccc(C)c1NC(=O)C1CCCCN1C (stereo unspecified) 7.08%
CCOC(=O)c1c(C)oc2cc(Br)c(OC(C)C(=O)OCC)cc12 (stereo unspecified) 2.34%
Nc1ccc(S(N)(=O)=O)cc1N -5.76%
Cc1ncc([N+](=O)[O-])n1CC(O)CCl (stereo unspecified) -16.1%
CN1C(C(=O)Nc2ccccn2)=C(O)c2sccc2S1(=O)=O -0.425%
CCc1ccc2oc(=O)cc(CN3CCC(C)CC3)c2c1 -13.9%
CCOC(=O)C1=C(N)Oc2c(oc(CO)cc2=O)C1c1ccc(F)c(F)c1 (stereo unspecified) -16.3%
C[C@]12CC[C@H]3C(=CCc4cc(O)ccc43)[C@@H]1CCC2=O -9.44%
COc1ccc(CNCCC(c2ccc(F)cc2)c2ccc(OC(C)C)cc2)cc1OC (stereo unspecified) 5.07%
CC(C)COCC1CC2(CC(C)(c3csc(N)n3)OC2=O)C(=O)O1 (stereo unspecified) -15.4%
COc1c(C)cc(C(=O)C2CCCN(Cc3ccc(Oc4ncccn4)cc3)C2)cc1C (stereo unspecified) -1.97%
CCOC(=O)C1C2C=CC3(CN(c4ccc(Cl)c(F)c4)C(=O)C13)O2 (stereo unspecified) -8.51%
Cn1c(=O)c2[nH]cnc2n(C)c1=O -18.8%
C#C[C@]1(O)CC[C@H]2[C@@H]3CCc4cc(OC5CCCC5)ccc4[C@H]3CC[C@@]21C -16.8%
CN(C)CCC=C1c2ccccc2CCc2ccccc21 24.8%
Cc1ccnc2c1NC(=O)c1cccnc1N2C1CC1 -3.14%
COc1cc(C(=O)OCCn2c(=O)c3c(ncn3CCN(C)C)n(C)c2=O)cc(OC)c1OC -17.9%
COc1ccc(CN2CCC(=O)NC2=O)cc1 3.24%
COc1ccc(-c2c[n+](CC(=O)OC3CC(C)CCC3C(C)C)c3n2CCC3)cc1 (stereo unspecified) -2.28%
O=C(COc1ccccc1)N1CCN(c2ccccc2)CC1 4.01%
COC(=O)c1cc(OC)c(OC)cc1NC(=O)Nc1ccc(OC)cc1OC -0.763%
Cc1cc(C)cc(Nc2nc3c([nH]2)c(=O)n(C)c(=O)n3C)c1 1.4%
CC(C)(C)C(=O)NCCCNc1ccc([N+](=O)[O-])cc1 4.14%
CN1CCCN=C1COC(=O)C(O)(c1ccccc1)C1CCCCC1 (stereo unspecified) -1.2%

By substructure, the compounds so far containing a Cl atom.
Growth inhibition, inactive:
Cc1nnc(SCC(=O)N2CCCC(C(=O)c3ccc(Cl)cc3)C2)o1 (stereo unspecified) -4.32%
COc1cc2c(cc1OC)C(c1ccc(-c3cc(Cl)ccc3Cl)o1)=NCC2 1.54%
Oc1ccc(Cl)cc1Cc1cc(Cl)ccc1O 46%
O=C(NCCCCCc1nc2ccccc2[nH]1)c1ccccc1Cl -7.37%
COc1ccc(CN(CCC(c2ccccc2)c2ccc(OC(C)C)cc2)C(=O)CCl)cc1OC (stereo unspecified) -2.59%
Cc1ncc([N+](=O)[O-])n1CC(O)CCl (stereo unspecified) -16.1%
CCOC(=O)C1C2C=CC3(CN(c4ccc(Cl)c(F)c4)C(=O)C13)O2 (stereo unspecified) -8.51%
